Measured data: PubChem BioAssay AID652272 (Drosophila RNAi Screening Center, 2013)
In all, the deposit lists about 21,000 reagents; this is an unselected part of those that have a named target and a result. In the full data, 503 (2.4%) are marked active. 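Raw plate light values, not normalised; calls rest on replicate z-scores that were not deposited; hits include reporter decreases as well as increases.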 Names joined by + are all predicted targets of the reagent. Not stated in the record: the amount of reagent, the time to read-out.

- Screen: 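Finding fly genes that regulate Hedgehog signal transduction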 (primary screen)
- System: Drosophila clone 8 (Cl8) cells
- Reagent: long dsRNA against Drosophila genes
- Detection: 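Firefly light from a Hedgehog-responsive ptc promoter reporter and Renilla reference light, both read on a plate reader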
- Direction: firefly Hh reporter signal: higher = more ptc reporter light; Renilla reference signal: higher = more Renilla control light
- Rule for the call: 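Hit when the z-score averaged over two replicates is under -2 or over +3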
- Calls: active = hit: reporter lowered or raised; inactive = not a hit

What is on record for CG13640 [DRSC14639]?
firefly Hh reporter signal, replicate 1: 4.66e5; firefly Hh reporter signal, replicate 2: 86226; Renilla reference signal, replicate 1: 23797; Renilla reference signal, replicate 2: 2880; outcome: inactive

What did the screen give for lt [DRSC03759]?
firefly Hh reporter signal, replicate 1: 81669; firefly Hh reporter signal, replicate 2: 49591; Renilla reference signal, replicate 1: 2390; Renilla reference signal, replicate 2: 4681; outcome: inactive

What did the screen give for b [DRSC03487]?
firefly Hh reporter signal, replicate 1: 1.08e5; firefly Hh reporter signal, replicate 2: 73924; Renilla reference signal, replicate 1: 3114; Renilla reference signal, replicate 2: 6044; outcome: inactive

What did the screen give for CG15252 [DRSC17981]?
firefly Hh reporter signal, replicate 1: 59773; firefly Hh reporter signal, replicate 2: 1.43e5; Renilla reference signal, replicate 1: 1797; Renilla reference signal, replicate 2: 5403; outcome: inactive

Which result is listed for Gli [DRSC03332]?
firefly Hh reporter signal, replicate 1: 1.14e5; firefly Hh reporter signal, replicate 2: 64157; Renilla reference signal, replicate 1: 3296; Renilla reference signal, replicate 2: 5266; outcome: inactive

What did the screen give for FarO [DRSC18475]?
firefly Hh reporter signal, replicate 1: 1.39e5; firefly Hh reporter signal, replicate 2: 3.03e5; Renilla reference signal, replicate 1: 5508; Renilla reference signal, replicate 2: 12037; outcome: inactive

What did the screen give for CG14624 [DRSC18634]?
firefly Hh reporter signal, replicate 1: 70704; firefly Hh reporter signal, replicate 2: 1.53e5; Renilla reference signal, replicate 1: 1876; Renilla reference signal, replicate 2: 5416; outcome: inactive

What is on record for Sod3 [DRSC07324]?
firefly Hh reporter signal, replicate 1: 1.04e5; firefly Hh reporter signal, replicate 2: 77587; Renilla reference signal, replicate 1: 4717; Renilla reference signal, replicate 2: 3285; outcome: inactive

What did the screen give for CG2616 [DRSC15440]?
firefly Hh reporter signal, replicate 1: 57684; firefly Hh reporter signal, replicate 2: 80520; Renilla reference signal, replicate 1: 2256; Renilla reference signal, replicate 2: 2299; outcome: inactive

For fzo [DRSC16954], what does the deposit list?
firefly Hh reporter signal, replicate 1: 5.23e5; firefly Hh reporter signal, replicate 2: 77299; Renilla reference signal, replicate 1: 26400; Renilla reference signal, replicate 2: 2080; outcome: inactive

With CG8870 [DRSC16452], how do the results read?
firefly Hh reporter signal, replicate 1: 91152; firefly Hh reporter signal, replicate 2: 81744; Renilla reference signal, replicate 1: 2986; Renilla reference signal, replicate 2: 2272; outcome: inactive

What is on record for CG6527 [DRSC10659]?
firefly Hh reporter signal, replicate 1: 8135; firefly Hh reporter signal, replicate 2: 76386; firefly Hh reporter signal, replicate 3: 69248; Renilla reference signal, replicate 1: 6488; Renilla reference signal, replicate 2: 5588; outcome: inactive

For CG8191 + CG12379 [DRSC19451], how do the results read?
firefly Hh reporter signal, replicate 1: 92057; firefly Hh reporter signal, replicate 2: 1.77e5; Renilla reference signal, replicate 1: 2345; Renilla reference signal, replicate 2: 6801; outcome: inactive

With Andorra [DRSC19475], what was measured?
firefly Hh reporter signal, replicate 1: 1.18e5; firefly Hh reporter signal, replicate 2: 3.16e5; Renilla reference signal, replicate 1: 3227; Renilla reference signal, replicate 2: 11331; outcome: inactive

With Glt [DRSC03333], what was measured?
firefly Hh reporter signal, replicate 1: 57410; firefly Hh reporter signal, replicate 2: 28872; Renilla reference signal, replicate 1: 2408; Renilla reference signal, replicate 2: 1252; outcome: inactive

Entries listed so far whose gene name begins with F or f:
FarO [DRSC18475] | firefly Hh reporter signal, replicate 1: 1.39e5; firefly Hh reporter signal, replicate 2: 3.03e5; Renilla reference signal, replicate 1: 5508; Renilla reference signal, replicate 2: 12037; outcome: inactive
fzo [DRSC16954] | firefly Hh reporter signal, replicate 1: 5.23e5; firefly Hh reporter signal, replicate 2: 77299; Renilla reference signal, replicate 1: 26400; Renilla reference signal, replicate 2: 2080; outcome: inactive

The listing continues.
For MagR [DRSC20092], what does the deposit list?
firefly Hh reporter signal, replicate 1: 74899; firefly Hh reporter signal, replicate 2: 2.30e5; Renilla reference signal, replicate 1: 2634; Renilla reference signal, replicate 2: 9057; outcome: inactive

For fzy [DRSC03534], what does the deposit list?
firefly Hh reporter signal, replicate 1: 58652; firefly Hh reporter signal, replicate 2: 18037; Renilla reference signal, replicate 1: 1744; Renilla reference signal, replicate 2: 1938; outcome: inactive

How did the screen score CG17002 [DRSC04978]?
firefly Hh reporter signal, replicate 1: 50499; firefly Hh reporter signal, replicate 2: 38411; Renilla reference signal, replicate 1: 2768; Renilla reference signal, replicate 2: 1942; outcome: inactive

For sol [DRSC20587], what was measured?
firefly Hh reporter signal, replicate 1: 52328; firefly Hh reporter signal, replicate 2: 2.24e5; Renilla reference signal, replicate 1: 1117; Renilla reference signal, replicate 2: 9403; outcome: inactive

For Polr1A [DRSC07535], how do the results read?
firefly Hh reporter signal, replicate 1: 64432; firefly Hh reporter signal, replicate 2: 47318; Renilla reference signal, replicate 1: 4662; Renilla reference signal, replicate 2: 2901; outcome: inactive

For CG18746 [DRSC15383], how do the results read?
firefly Hh reporter signal, replicate 1: 80373; firefly Hh reporter signal, replicate 2: 1.35e5; Renilla reference signal, replicate 1: 3371; Renilla reference signal, replicate 2: 3708; outcome: inactive

What is on record for lky [DRSC20682]?
firefly Hh reporter signal, replicate 1: 70920; firefly Hh reporter signal, replicate 2: 1.74e5; Renilla reference signal, replicate 1: 2295; Renilla reference signal, replicate 2: 7462; outcome: inactive

Which result is listed for Lint-O [DRSC18468]?
firefly Hh reporter signal, replicate 1: 61332; firefly Hh reporter signal, replicate 2: 1.53e5; Renilla reference signal, replicate 1: 1853; Renilla reference signal, replicate 2: 6914; outcome: inactive

What did the screen give for Jhbp16 [DRSC15039]?
firefly Hh reporter signal, replicate 1: 3.60e5; firefly Hh reporter signal, replicate 2: 1.35e5; Renilla reference signal, replicate 1: 17888; Renilla reference signal, replicate 2: 2663; outcome: inactive

What did the screen give for CG5327 [DRSC06930]?
firefly Hh reporter signal, replicate 1: 1.23e5; firefly Hh reporter signal, replicate 2: 65627; Renilla reference signal, replicate 1: 3288; Renilla reference signal, replicate 2: 4317; outcome: inactive

With Atf6 [DRSC04743], what was measured?
firefly Hh reporter signal, replicate 1: 1.77e5; firefly Hh reporter signal, replicate 2: 3.51e5; Renilla reference signal, replicate 1: 5083; Renilla reference signal, replicate 2: 16823; outcome: inactive

For Atf6 [DRSC04889], how do the results read?
firefly Hh reporter signal, replicate 1: 88928; firefly Hh reporter signal, replicate 2: 48909; Renilla reference signal, replicate 1: 1904; Renilla reference signal, replicate 2: 5056; outcome: inactive
